Results from publication PMC3285612.
These are yes or no findings as the source states them, for the method shown. A result given as binding can be weak or reduced; the word gives no strength.

biological target: T1, recombinant Simukunin (rSV-66) (Simulium vittatum) (UniProt B5M0W4); experiment: SPR; rSimukunin immobilised on a CM5 chip by amine coupling (475.3 RU); each analyte injected at 200 nM; running buffer HBS-P (10 mM Hepes pH 7.4, 150 mM NaCl, 0.005% P20); Biacore T100; both purified
T1 sequence: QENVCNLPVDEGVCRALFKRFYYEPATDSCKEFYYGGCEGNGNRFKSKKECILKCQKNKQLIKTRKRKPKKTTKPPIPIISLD

Substance | binding
activated coagulation factor IX (FIXa) (enzyme) | binds weakly
activated coagulation factor XI (FXIa) (human) (enzyme) | binds weakly
des-Gla-FXa (human), FXa derivative lacking the Gla domain (domain or fragment) | binds

Next, values leading:

binding | Substance
binds | activated coagulation factor X (FXa), bovine (enzyme)
binds | activated coagulation factor X (FXa), human (enzyme)
binds | activated coagulation factor X (FXa), mouse (enzyme)
